# According to paper PMC7819943, “Rice protein-binding microarrays: a tool to detect cis-acting elements near promoter regions in rice”:
# Amino acid sequences for entries named in this document (tags omitted).
# UniProt Q0JBA9, entry or part of it: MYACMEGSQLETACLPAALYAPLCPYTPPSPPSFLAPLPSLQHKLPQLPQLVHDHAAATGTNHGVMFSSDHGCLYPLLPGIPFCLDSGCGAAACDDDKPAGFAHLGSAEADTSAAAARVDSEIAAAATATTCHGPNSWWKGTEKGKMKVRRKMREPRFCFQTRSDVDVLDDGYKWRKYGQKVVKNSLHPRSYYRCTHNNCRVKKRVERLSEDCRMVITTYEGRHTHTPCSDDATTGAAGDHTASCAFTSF
# The list shows a part of the results.
# Target: OsWRKY34 (Oryza sativa, UniProt Q0JBA9 1-250)
# Test: protein-binding microarray (RPBM); PBS, 2% BSA, 51.3 ng/ul salmon testes DNA, 50 uM zinc acetate, 200 nM TF, 25 C, 1 h; high values mean tight binding
# Details: protein: recombinant; tags: N-terminal polyhistidine and DsRed monomer fusion (pET32a); label: CyDye5-dUTP incorporated in the synthesized complementary strand; 3' TTTTT single-stranded linker to array surface; dsDNA, one strand shown
# In short: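 For the binding signal, per-feature fluorescence intensity was read in arbitrary units on an Axon 4000B scanner. Before scanning, a 2% BSA-blocked custom Agilent array made double-stranded with Cy5-dUTP was washed after 1 h at 25 °C with 200 nM protein and 50 µM zinc acetate. The proteins were Ni–NTA-purified transcription factors with N-terminal polyhistidine and DsRed fusions, expressed in E. coli BL21-CodonPlus.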
row,Sequence,binding signal
1,GGCTTCGTTGTGATATGTGGAAGACGAGGGGCTTTTTCACCGGAGTCACCTAGTGCAG,10400 fluorescence intensity (a.u.)
2,GAACAGTGCTGGCACTAGGCCACTAGCTAAGTAGCTAGCTCGGAGTCACCTAGTGCAG,13000 fluorescence intensity (a.u.)
3,TCGCTGACCTGCCCGTGTTCGCCCCTCTCGCCGGCCGCCGCGGAGTCACCTAGTGCAG,8240 fluorescence intensity (a.u.)
4,CCATCCATCCAACCATCGATCGATCACTTCCAACTTATTTCGGAGTCACCTAGTGCAG,11800 fluorescence intensity (a.u.)
5,CCGTCAGGTGACGTTTCTCCAGAGGAGCTGCAGGGACCTCCGGAGTCACCTAGTGCAG,8390 fluorescence intensity (a.u.)
6,TATATTGTCTGTTTTCTCTTGAATCTTTCCTATCCAGTAGCGGAGTCACCTAGTGCAG,8490 fluorescence intensity (a.u.)
7,GGAGTAGTTTGGTTGGTTCGTTAAGGGACAGAGGGAGCTGCGGAGTCACCTAGTGCAG,10700 fluorescence intensity (a.u.)
8,CTCCAGCTATATAACCATCCTTGTGCCTCTCTTGCCACACCGGAGTCACCTAGTGCAG,8280 fluorescence intensity (a.u.)
9,GCTGCGAAGCCATCTTCTTCTCGGTCTCCACGCGCTTTCACGGAGTCACCTAGTGCAG,10000 fluorescence intensity (a.u.)
10,ACCCGTGCTGACTCAACTTGTTGACCAGAAACCACCCCACCGGAGTCACCTAGTGCAG,12100 fluorescence intensity (a.u.)
11,TCTCCTCTCTATTTTTTTTTAAAAAAAATCTGCTGCCCTTCGGAGTCACCTAGTGCAG,9270 fluorescence intensity (a.u.)
12,GTGTTCTCATTGTATTGGGTATTCAAATGTTTTGTAATATCGGAGTCACCTAGTGCAG,9730 fluorescence intensity (a.u.)
13,CTTGGATATGCATCGTGTTGTGTTGCGTGTTGCCGCTCCGCGGAGTCACCTAGTGCAG,10800 fluorescence intensity (a.u.)
14,ATCACTAATCTTTGTTGCTCTCTTTTCTTGTGTTCAGGCACGGAGTCACCTAGTGCAG,12800 fluorescence intensity (a.u.)
15,TTCCTCTGCTCTCTCTGGAACTCACCGCCCTCACTTCCACCGGAGTCACCTAGTGCAG,11900 fluorescence intensity (a.u.)
16,CTTTTCTTCATTGTCTTTTGGTTTAAGGTCCTCATTTTCCCGGAGTCACCTAGTGCAG,10800 fluorescence intensity (a.u.)
17,TACCCCTGAATTTTCATTTTGATCTCATCTATACCCATCTCGGAGTCACCTAGTGCAG,8070 fluorescence intensity (a.u.)
18,GTTGAAGTTTTTGGCAGGGGTTAGTTTCGAAATAAGTTTTCGGAGTCACCTAGTGCAG,8170 fluorescence intensity (a.u.)
19,GGGCCCCACAACAATCGCCCTCATGTTGAATCTTCGCGTCCGGAGTCACCTAGTGCAG,8900 fluorescence intensity (a.u.)
20,CCCGTTGTTCTTCCCTCGCTTGCACGCCGCCGCCGCCATGCGGAGTCACCTAGTGCAG,8360 fluorescence intensity (a.u.)
21,ATATTCTCTAGCTCCATGCCTTCATCTTGTTCAGGTTCCTCGGAGTCACCTAGTGCAG,8460 fluorescence intensity (a.u.)

row,Sequence,binding signal
1,GTCACCACGATCGCATTCACCTCCCATCCCACAATGTTGCCGGAGTCACCTAGTGCAG,8100 fluorescence intensity (a.u.)
2,TCTCCATCCGACACCTTCCGGTGCTTGCGCCCATCGATCCCGGAGTCACCTAGTGCAG,8650 fluorescence intensity (a.u.)
3,ATAAGGTTACGGTTAATTTTTAAGGGGTTTTCACTTGTTTCGGAGTCACCTAGTGCAG,9480 fluorescence intensity (a.u.)
4,TTCCACTTTGCACTAGGTTGCATCACATAATTAAAAACAACGGAGTCACCTAGTGCAG,8300 fluorescence intensity (a.u.)
5,TTACTTGTACTGTTTGACTATTCGTCTTATTCCAAAAAAACGGAGTCACCTAGTGCAG,8820 fluorescence intensity (a.u.)
6,GAAATCCTCGTGAATCTCTCGCTCTCTCGCCGCCGCCGCCCGGAGTCACCTAGTGCAG,8590 fluorescence intensity (a.u.)
7,CAGCAGCAGTGGTGGTGGTGGTTTTGGTAGTGGCTGGGAGCGGAGTCACCTAGTGCAG,9780 fluorescence intensity (a.u.)
8,ACCTCACCTCGTCCTCGTCGTCTTCTTCTCCCCACGCTTGCGGAGTCACCTAGTGCAG,11600 fluorescence intensity (a.u.)
9,GCACGCCATGTCAGCCGCCGCTTTGCTTTGCTCCACGTGTCGGAGTCACCTAGTGCAG,9610 fluorescence intensity (a.u.)
10,ACTCCCACTCCTCTCCACCTTCAAATCCACGCGAGTTGTTCGGAGTCACCTAGTGCAG,8640 fluorescence intensity (a.u.)
11,CTCGCGCCCGTTGCTGCCTTACACAGCACACCACACTACCCGGAGTCACCTAGTGCAG,9050 fluorescence intensity (a.u.)
12,CCTTTGTCAATCTCCACCACATCATCTCCTACCTCGTCCTCGGAGTCACCTAGTGCAG,8180 fluorescence intensity (a.u.)
13,TATTTAAAACAGTTTCCGTGTGCGCACACATATAAATACACGGAGTCACCTAGTGCAG,8240 fluorescence intensity (a.u.)
14,CCTTTTTGCTCCGATTCAATTTCTCGATCGTTTCTTTCCCCGGAGTCACCTAGTGCAG,9090 fluorescence intensity (a.u.)
15,GCTGACATATTGGCTTCACAATTGCTTTTCTTGTTACTTACGGAGTCACCTAGTGCAG,8900 fluorescence intensity (a.u.)
16,CGAGCAAGTGTGCAACTCGATCCACTCCACCGTTTGTCTTCGGAGTCACCTAGTGCAG,9270 fluorescence intensity (a.u.)
17,AATTGACTAGCTATAGTTTGATCTGATCGATCCGTTGTTTCGGAGTCACCTAGTGCAG,9500 fluorescence intensity (a.u.)
18,TCTTTCGTCGCAATGCCACGCCATCATCGATCCCTTTCCTCGGAGTCACCTAGTGCAG,10300 fluorescence intensity (a.u.)
19,AAAAGAAAAATTTTTTGTGTCACATCGGATGTTTGACCGGCGGAGTCACCTAGTGCAG,8370 fluorescence intensity (a.u.)
20,CCTCCATCTATTTCTGTGTTTGTGCTCCTCTACTGTCTCCCGGAGTCACCTAGTGCAG,8790 fluorescence intensity (a.u.)
21,ACTTTGTACTAGTTTTCATATTATGTCATTCTTTAACCATCGGAGTCACCTAGTGCAG,8420 fluorescence intensity (a.u.)

# Fetched one by one from above (3):
row,Sequence,binding signal
1,GTCACCACGATCGCATTCACCTCCCATCCCACAATGTTGCCGGAGTCACCTAGTGCAG,8100 fluorescence intensity (a.u.)
3,ATAAGGTTACGGTTAATTTTTAAGGGGTTTTCACTTGTTTCGGAGTCACCTAGTGCAG,9480 fluorescence intensity (a.u.)
19,AAAAGAAAAATTTTTTGTGTCACATCGGATGTTTGACCGGCGGAGTCACCTAGTGCAG,8370 fluorescence intensity (a.u.)
